Source: the supplement of paper PMC4604168 (melanoma cell lines)
Some of the results follow. Many values rest on one well or one pass, so single values are uncertain.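 Imaging used 1,536-well plates; nuclei positive for cleaved PARP by antibody were divided by total DNA-stained nuclei to yield the apoptosis fraction. Doses for screening kept most cells viable, and cell lines differ markedly in resting and induced cleaved-PARP levels.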

test system: C32; assay: cleaved PARP positive nuclei fraction relative to DMSO control; melanoma cells; higher = more apoptosis; conditions: library dose: low library concentration; 72 h

SMILES	cleaved PARP positive nuclei fraction [%]
O=C(O)C(=O)Nc1sc2c(c1C(=O)O)CCNC2 + Oc1nc(-c2ccc(C(F)(F)F)cc2)nc2c1CSCC2 [XAV939] (first compound 1.66667 µM, partner dose 2 µM)	226
Oc1cc(-c2nc(-c3ccccc3)[nH]c2-c2ccncc2)ccc1Cl + Cc1cc([N+](=O)[O-])ccc1NS(=O)(=O)c1cc(Cl)ccc1Cl [FH535] (first compound 0.2 µM, partner dose 1 µM)	164
CN(C)S(=O)(=O)c1ccc2c(c1)/C(=C/c1cc3c([nH]1)CCCC3)C(=O)N2 + O=S(=O)(c1ccccc1)N(CC(F)(F)F)c1ccc(C(O)(C(F)(F)F)C(F)(F)F)cc1 [T0901317] (first compound 0.4 µM, partner dose 1.4 µM)	31
N#Cc1c(O)c2c(-c3ccc(-c4ccccc4O)cc3)csc2[nH]c1=O + O=C(O)C(=O)Nc1sc2c(c1C(=O)O)CCNC2 [TCS401] (first compound 2 µM, partner dose 1.66667 µM)	73.4
O=C1NC(=O)/C(=C/c2ccc(-c3ccc(F)cc3O)o2)S1 + Oc1nc(-c2ccc(C(F)(F)F)cc2)nc2c1CSCC2 [XAV939] (first compound 1 µM, partner dose 2 µM)	117

test system: CBRC013 (line from a melanoma biopsy); assay: as above; conditions: library dose: low library concentration; 72 h

SMILES	cleaved PARP positive nuclei fraction [%]
COc1ccc2c(c1)CCC1C2CCC2(C)C(NCCCCCCN3C(=O)C=CC3=O)CCC12 (centres undefined) + Oc1cc(-c2nc(-c3ccccc3)[nH]c2-c2ccncc2)ccc1Cl [L779450] (first compound 0.4 µM, partner dose 0.2 µM)	30.6
CN(C)S(=O)(=O)c1ccc2c(c1)/C(=C/c1cc3c([nH]1)CCCC3)C(=O)N2 + O=C(O)C(=O)Nc1sc2c(c1C(=O)O)CCNC2 [TCS401] (first compound 0.4 µM, partner dose 1.66667 µM)	212
COc1ccc(-c2ccc3c(N4CCOCC4)nc(N4C[C@@H](C)O[C@@H](C)C4)nc3n2)cc1CO + COc1cc(N2CCC(N3CCN(C)CC3)CC2)ccc1Nc1ncc(Cl)c(Nc2ccccc2S(=O)(=O)C(C)C)n1 [NVP-TAE684] (first compound 0.02 µM, partner dose 0.08 µM)	90.9
COc1cc2c(Oc3ccc4[nH]c(C)cc4c3F)ncnc2cc1OCCCN1CCCC1 [cediranib] + Oc1cc(-c2nc(-c3ccccc3)[nH]c2-c2ccncc2)ccc1Cl [L779450] (first compound 0.4 µM, partner dose 0.2 µM)	202
O=C(Nc1ccccc1)c1cc([N+](=O)[O-])ccc1Cl + Oc1cc(-c2nc(-c3ccccc3)[nH]c2-c2ccncc2)ccc1Cl [L779450] (first compound 2 µM, partner dose 0.2 µM)	69.3
O=C(Nc1ccccc1)c1cc([N+](=O)[O-])ccc1Cl + CCCCCCCCCCCC1=C(O)C(=O)C=C(O)C1=O [Embelin] (first compound 2 µM, partner dose 1.2 µM)	152
COc1ccc(-c2ccc3c(N4CCOCC4)nc(N4C[C@@H](C)O[C@@H](C)C4)nc3n2)cc1CO + CCCCCCCCCCCC1=C(O)C(=O)C=C(O)C1=O [Embelin] (first compound 0.02 µM, partner dose 1.2 µM)	152
Cn1cc(/C=C2\C(=O)Nc3cccnc32)c2ccccc21 + CCCCCCCCCCCC1=C(O)C(=O)C=C(O)C1=O [Embelin] (first compound 0.4 µM, partner dose 1.2 µM)	415
NCC(=O)Nc1ccc(-n2nc(C(F)(F)F)cc2-c2ccc3c(ccc4ccccc43)c2)cc1 + COc1ccc(-c2ccc3c(N4CCOCC4)nc(N4C[C@@H](C)O[C@@H](C)C4)nc3n2)cc1CO [KU0063794] (first compound 1 µM, partner dose 0.02 µM)	72.3
CCN(CC)CCCCNc1ncc2cc(-c3cc(OC)cc(OC)c3)c(NC(=O)NC(C)(C)C)nc2n1 + Oc1nc(-c2ccc(C(F)(F)F)cc2)nc2c1CSCC2 [XAV939] (first compound 0.1 µM, partner dose 2 µM)	58
O=C(O)c1ccc(-c2c[nH]c3ncc(-c4ccccc4)cc23)cc1C1CCCC1 + O=c1cc(-c2cccc3c2Sc2ccccc2S3)oc(N2CCOCC2)c1 [KU55933] (first compound 0.16 µM, partner dose 1 µM)	486
CCN(CC)CCCCNc1ncc2cc(-c3cc(OC)cc(OC)c3)c(NC(=O)NC(C)(C)C)nc2n1 + O=S(=O)(c1ccccc1)N(CC(F)(F)F)c1ccc(C(O)(C(F)(F)F)C(F)(F)F)cc1 [T0901317] (first compound 0.1 µM, partner dose 1.4 µM)	31.9
COc1ccc2c(c1)CCC1C2CCC2(C)C(NCCCCCCN3C(=O)C=CC3=O)CCC12 (centres undefined) + COc1ccc(-c2ccc3c(N4CCOCC4)nc(N4C[C@@H](C)O[C@@H](C)C4)nc3n2)cc1CO [KU0063794] (first compound 0.4 µM, partner dose 0.02 µM)	340
COc1cc2c(Oc3ccc4[nH]c(C)cc4c3F)ncnc2cc1OCCCN1CCCC1 [cediranib] + Oc1nc(-c2ccc(C(F)(F)F)cc2)nc2c1CSCC2 [XAV939] (first compound 0.4 µM, partner dose 2 µM)	133
COc1ccc(-c2ccc3c(N4CCOCC4)nc(N4C[C@@H](C)O[C@@H](C)C4)nc3n2)cc1CO + COc1ccc(COc2ccc(Cc3cnc(N)nc3N)cc2OC)cc1 [GW2580] (first compound 0.02 µM, partner dose 1 µM)	62.3
O=C(Nc1ccccc1)c1cc([N+](=O)[O-])ccc1Cl + c1cc(-c2cnn3cc(-c4ccc(OCCN5CCCCC5)cc4)cnc23)ccn1 [Dorsomorphin] (first compound 2 µM, partner dose 0.4 µM)	98.3
NCC(=O)Nc1ccc(-n2nc(C(F)(F)F)cc2-c2ccc3c(ccc4ccccc43)c2)cc1 + O=c1cc(-c2cccc3c2Sc2ccccc2S3)oc(N2CCOCC2)c1 [KU55933] (first compound 1 µM, partner dose 1 µM)	158
COC(=O)c1sccc1S(=O)(=O)Nc1ccc(Nc2ccccc2)cc1OC + COc1ccc(COc2ccc(Cc3cnc(N)nc3N)cc2OC)cc1 [GW2580] (first compound 1 µM, partner dose 1 µM)	60.4
NCC(=O)Nc1ccc(-n2nc(C(F)(F)F)cc2-c2ccc3c(ccc4ccccc43)c2)cc1 + Oc1nc(-c2ccc(C(F)(F)F)cc2)nc2c1CSCC2 [XAV939] (first compound 1 µM, partner dose 2 µM)	246
NCC(=O)Nc1ccc(-n2nc(C(F)(F)F)cc2-c2ccc3c(ccc4ccccc43)c2)cc1 + N#Cc1c(O)c2c(-c3ccc(-c4ccccc4O)cc3)csc2[nH]c1=O [A769662] (first compound 1 µM, partner dose 2 µM)	102
CCc1ccc(CCOc2ccc(CC3SC(=O)NC3=O)cc2)nc1 (centres undefined) [pioglitazone] + COc1ccc2c(c1)CCC1C2CCC2(C)C(NCCCCCCN3C(=O)C=CC3=O)CCC12 [U73122] (first compound 2 µM, partner dose 0.4 µM)	132
COc1cc(N2CCC(N3CCN(C)CC3)CC2)ccc1Nc1ncc(Cl)c(Nc2ccccc2S(=O)(=O)C(C)C)n1 + CCCCCCCCCCCC1=C(O)C(=O)C=C(O)C1=O [Embelin] (first compound 0.08 µM, partner dose 1.2 µM)	178
N#Cc1c(O)c2c(-c3ccc(-c4ccccc4O)cc3)csc2[nH]c1=O + COc1ccc(-c2ccc3c(N4CCOCC4)nc(N4C[C@@H](C)O[C@@H](C)C4)nc3n2)cc1CO [KU0063794] (first compound 2 µM, partner dose 0.02 µM)	144
NCC(=O)Nc1ccc(-n2nc(C(F)(F)F)cc2-c2ccc3c(ccc4ccccc43)c2)cc1 + O=S(=O)(c1ccccc1)N(CC(F)(F)F)c1ccc(C(O)(C(F)(F)F)C(F)(F)F)cc1 [T0901317] (first compound 1 µM, partner dose 1.4 µM)	220
O=C1NC(=O)/C(=C/c2ccc(-c3ccc(F)cc3O)o2)S1 + CC(C)CCN1c2nc(Nc3cc(F)c(O)c(F)c3)ncc2N(C)C(=O)C1C [BID1870] (first compound 1 µM, partner dose 0.2 µM)	134
NCC(=O)Nc1ccc(-n2nc(C(F)(F)F)cc2-c2ccc3c(ccc4ccccc43)c2)cc1 + O=C(Nc1ccccc1)c1cc([N+](=O)[O-])ccc1Cl [GW9662] (first compound 1 µM, partner dose 2 µM)	89
O=S(=O)(c1ccccc1)N(CC(F)(F)F)c1ccc(C(O)(C(F)(F)F)C(F)(F)F)cc1 + c1cc(-c2cnn3cc(-c4ccc(OCCN5CCCCC5)cc4)cnc23)ccn1 [Dorsomorphin] (first compound 1.4 µM, partner dose 0.4 µM)	66.5
COc1ccc(COc2ccc(Cc3cnc(N)nc3N)cc2OC)cc1 + Cn1cc(/C=C2\C(=O)Nc3cccnc32)c2ccccc21 [GW441756] (first compound 1 µM, partner dose 0.4 µM)	128
Oc1cc(-c2nc(-c3ccccc3)[nH]c2-c2ccncc2)ccc1Cl + c1cc(-c2cnn3cc(-c4ccc(OCCN5CCCCC5)cc4)cnc23)ccn1 [Dorsomorphin] (first compound 0.2 µM, partner dose 0.4 µM)	32.1

Retrieved one by one from above (two):
SMILES	cleaved PARP positive nuclei fraction [%]
CCN(CC)CCCCNc1ncc2cc(-c3cc(OC)cc(OC)c3)c(NC(=O)NC(C)(C)C)nc2n1 + Oc1nc(-c2ccc(C(F)(F)F)cc2)nc2c1CSCC2 [XAV939] (first compound 0.1 µM, partner dose 2 µM)	58
NCC(=O)Nc1ccc(-n2nc(C(F)(F)F)cc2-c2ccc3c(ccc4ccccc43)c2)cc1 + N#Cc1c(O)c2c(-c3ccc(-c4ccccc4O)cc3)csc2[nH]c1=O [A769662] (first compound 1 µM, partner dose 2 µM)	102
